No constants are given. Whether binding was seen depends on the method and setting. Binding seen in cells or lysates may run through a third protein. These calls come from enrichment with a bait or labelling near it, and not all partners need be listed.

Protein sequences, listed by entry. Tags and fused reporters are not part of them.
UniProt P04608: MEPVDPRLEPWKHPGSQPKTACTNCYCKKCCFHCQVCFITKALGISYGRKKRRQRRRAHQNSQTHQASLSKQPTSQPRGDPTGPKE

In assay [1] the target is GST-Tat (HIV-1 HXB2, 86 amino acids) (HIV-1 HXB2) (UniProt P04608). In words: affinity purification with mass spectrometry; only the target purified.
The target of assay [2] is GST-Tat (HIV-1 HXB2, 86 amino acids) (HIV-1 HXB2), P04608. Put plainly: affinity purification with mass spectrometry; GST-Tat (bait) or GST (control) immobilised on glutathione-Sepharose 4 Fast Flow; Jurkat nuclear extract (300 ug, Benzonase-treated), rotating at 4°C overnight; binding buffer 20 mM Tris pH 7.4, 300 mM NaCl, 100 mM NaF, 1 mM DTT, 50 mM EDTA, 1% Triton X100, 10% glycerol; eluate on SDS-PAGE, gel slices by LC-MS/MS; only the target purified. The conditions noted are these: remark: other sources report otherwise.

B1: Nup93 (protein, UniProt Q8N1F7 1-819)
chain: MDTEGFGELLQQAEQLAAETEGISELPHVERNLQEIQQAGERLRSRTLTRTSQETADVKASVLLGSRGLDISHISQRLESLSAATTFEPLEPVKDTDIQGFLKNEKDNALLSAIEESRKRTFGMAEEYHRESMLVEWEQVKQRILHTLLASGEDALDFTQESEPSYISDVGPPGRSSLDNIEMAYARQIYIYNEKIVNGHLQPNLVDLCASVAELDDKSISDMWTMVKQMTDVLLTPATDALKNRSSVEVRMEFVRQALAYLEQSYKNYTLVTVFGNLHQAQLGGVPGTYQLVRSFLNIKLPAPLPGLQDGEVEGHPVWALIYYCMRCGDLLAASQVVNRAQHQLGEFKTWFQEYMNSKDRRLSPATENKLRLHYRRALRNNTDPYKRAVYCIIGRCDVTDNQSEVADKTEDYLWLKLNQVCFDDDGTSSPQDRLTLSQFQKQLLEDYGESHFTVNQQPFLYFQVLFLTAQFEAAVAFLFRMERLRCHAVHVALVLFELKLLLKSSGQSAQLLSHEPGDPPCLRRLNFVRLLMLYTRKFESTDPREALQYFYFLRDEKDSQGENMFLRCVSELVIESREFDMILGKLENDGSRKPGVIDKFTSDTKPIINKVASVAENKGLFEEAAKLYDLAKNADKVLELMNKLLSPVVPQISAPQSNKERLKNMALSIAERYRAQGISANKFVDSTFYLLLDLITFFDEYHSGHIDRAFDIIERLKLVPLNQESVEERVAAFRNFSDEIRHNLSEVLLATMNILFTQFKRLKGTSPSSSSRPQRVIEDRDSQLRSQARTLITFAGMIPYRTSGDTNARLVQMEVLMN
Turning to B1, the binding entry in assay [1] is on record as “binds”.

B2: Nup85 (protein, UniProt Q9BW27 1-656)
chain: MEELDGEPTVTLIPGVNSKKNQMYFDWGPGEMLVCETSFNKKEKSEMVPSCPFIYIIRKDVDVYSQILRKLFNESHGIFLGLQRIDEELTGKSRKSQLVRVSKNYRSVIRACMEEMHQVAIAAKDPANGRQFSSQVSILSAMELIWNLCEILFIEVAPAGPLLLHLLDWVRLHVCEVDSLSADVLGSENPSKHDSFWNLVTILVLQGRLDEARQMLSKEADASPASAGICRIMGDLMRTMPILSPGNTQTLTELELKWQHWHEECERYLQDSTFATSPHLESLLKIMLGDEAALLEQKELLSNWYHFLVTRLLYSNPTVKPIDLHYYAQSSLDLFLGGESSPEPLDNILLAAFEFDIHQVIKECSIALSNWWFVAHLTDLLDHCKLLQSHNLYFGSNMREFLLLEYASGLFAHPSLWQLGVDYFDYCPELGRVSLELHIERIPLNTEQKALKVLRICEQRQMTEQVRSICKILAMKAVRNNRLGSALSWSIRAKDAAFATLVSDRFLRDYCERGCFSDLDLIDNLGPAMMLSDRLTFLGKYREFHRMYGEKRFADAASLLLSLMTSRIAPRSFWMTLLTDALPLLEQKQVIFSAEQTYELMRCLEDLTSRRPVHGESDTEQLQDDDIETTKVEMLRLSLARNLARAIIREGSLEGS
On to B2, for which the binding result in assay [1] is “binds”.

B3: RHII/Gu, Q9NR30 1-783 (protein)
chain: MPGKLRSDAGLESDTAMKKGETLRKQTEEKEKKEKPKSDKTEEIAEEEETVFPKAKQVKKKAEPSEVDMNSPKSKKAKKKEEPSQNDISPKTKSLRKKKEPIEKKVVSSKTKKVTKNEEPSEEEIDAPKPKKMKKEKEMNGETREKSPKLKNGFPHPEPDCNPSEAASEESNSEIEQEIPVEQKEGAFSNFPISEETIKLLKGRGVTFLFPIQAKTFHHVYSGKDLIAQARTGTGKTFSFAIPLIEKLHGELQDRKRGRAPQVLVLAPTRELANQVSKDFSDITKKLSVACFYGGTPYGGQFERMRNGIDILVGTPGRIKDHIQNGKLDLTKLKHVVLDEVDQMLDMGFADQVEEILSVAYKKDSEDNPQTLLFSATCPHWVFNVAKKYMKSTYEQVDLIGKKTQKTAITVEHLAIKCHWTQRAAVIGDVIRVYSGHQGRTIIFCETKKEAQELSQNSAIKQDAQSLHGDIPQKQREITLKGFRNGSFGVLVATNVAARGLDIPEVDLVIQSSPPKDVESYIHRSGRTGRAGRTGVCICFYQHKEEYQLVQVEQKAGIKFKRIGVPSATEIIKASSKDAIRLLDSVPPTAISHFKQSAEKLIEEKGAVEALAAALAHISGATSVDQRSLINSNVGFVTMILQCSIEMPNISYAWKELKEQLGEEIDSKVKGMVFLKGKLGVCFDVPTASVTEIQEKWHDSRRWQLSVATEQPELEGPREGYGGFRGQREGSRGFRGQRDGNRRFRGQREGSRGPRGQRSGGGNKSNRSQNKGQKRSFSKAFGQ
For B3, the binding entry in assay [2] is recorded as “binds”.
